Test results taken from the supplement of paper PMC12067093, “Discovery and optimisation of a covalent ligand for TRIM25 and its application to targeted protein ubiquitination” (Chemical Science, 2025).
The list shows a part of the results.

Amino acid sequences for entries named in this document (tags omitted). A change or cut given only in a name is not applied to a line headed by its entry.
UniProt Q15020: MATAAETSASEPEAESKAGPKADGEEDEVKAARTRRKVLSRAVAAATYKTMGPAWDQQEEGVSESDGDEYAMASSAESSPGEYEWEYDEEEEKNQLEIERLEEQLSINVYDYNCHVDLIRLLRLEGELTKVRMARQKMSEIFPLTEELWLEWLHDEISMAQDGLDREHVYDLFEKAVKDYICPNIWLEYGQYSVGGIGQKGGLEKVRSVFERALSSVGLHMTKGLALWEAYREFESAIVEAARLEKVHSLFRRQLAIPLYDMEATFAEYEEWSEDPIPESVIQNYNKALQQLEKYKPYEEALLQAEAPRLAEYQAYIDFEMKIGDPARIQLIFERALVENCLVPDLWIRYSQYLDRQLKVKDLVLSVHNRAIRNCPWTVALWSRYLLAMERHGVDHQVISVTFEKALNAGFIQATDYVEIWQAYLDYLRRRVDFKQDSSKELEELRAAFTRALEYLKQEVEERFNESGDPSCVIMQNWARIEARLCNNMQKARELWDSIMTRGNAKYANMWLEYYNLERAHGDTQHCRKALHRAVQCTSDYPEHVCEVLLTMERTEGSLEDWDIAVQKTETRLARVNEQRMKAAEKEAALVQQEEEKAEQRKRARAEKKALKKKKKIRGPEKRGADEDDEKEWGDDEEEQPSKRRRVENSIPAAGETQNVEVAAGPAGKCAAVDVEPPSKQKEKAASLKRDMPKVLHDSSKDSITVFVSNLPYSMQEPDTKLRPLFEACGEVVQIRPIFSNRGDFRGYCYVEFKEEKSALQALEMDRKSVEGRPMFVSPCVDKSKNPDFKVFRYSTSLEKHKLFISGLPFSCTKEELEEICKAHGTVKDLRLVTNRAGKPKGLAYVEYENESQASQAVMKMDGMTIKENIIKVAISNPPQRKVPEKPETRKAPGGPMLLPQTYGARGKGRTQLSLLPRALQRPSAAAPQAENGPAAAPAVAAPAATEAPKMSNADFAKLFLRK
UniProt O94855: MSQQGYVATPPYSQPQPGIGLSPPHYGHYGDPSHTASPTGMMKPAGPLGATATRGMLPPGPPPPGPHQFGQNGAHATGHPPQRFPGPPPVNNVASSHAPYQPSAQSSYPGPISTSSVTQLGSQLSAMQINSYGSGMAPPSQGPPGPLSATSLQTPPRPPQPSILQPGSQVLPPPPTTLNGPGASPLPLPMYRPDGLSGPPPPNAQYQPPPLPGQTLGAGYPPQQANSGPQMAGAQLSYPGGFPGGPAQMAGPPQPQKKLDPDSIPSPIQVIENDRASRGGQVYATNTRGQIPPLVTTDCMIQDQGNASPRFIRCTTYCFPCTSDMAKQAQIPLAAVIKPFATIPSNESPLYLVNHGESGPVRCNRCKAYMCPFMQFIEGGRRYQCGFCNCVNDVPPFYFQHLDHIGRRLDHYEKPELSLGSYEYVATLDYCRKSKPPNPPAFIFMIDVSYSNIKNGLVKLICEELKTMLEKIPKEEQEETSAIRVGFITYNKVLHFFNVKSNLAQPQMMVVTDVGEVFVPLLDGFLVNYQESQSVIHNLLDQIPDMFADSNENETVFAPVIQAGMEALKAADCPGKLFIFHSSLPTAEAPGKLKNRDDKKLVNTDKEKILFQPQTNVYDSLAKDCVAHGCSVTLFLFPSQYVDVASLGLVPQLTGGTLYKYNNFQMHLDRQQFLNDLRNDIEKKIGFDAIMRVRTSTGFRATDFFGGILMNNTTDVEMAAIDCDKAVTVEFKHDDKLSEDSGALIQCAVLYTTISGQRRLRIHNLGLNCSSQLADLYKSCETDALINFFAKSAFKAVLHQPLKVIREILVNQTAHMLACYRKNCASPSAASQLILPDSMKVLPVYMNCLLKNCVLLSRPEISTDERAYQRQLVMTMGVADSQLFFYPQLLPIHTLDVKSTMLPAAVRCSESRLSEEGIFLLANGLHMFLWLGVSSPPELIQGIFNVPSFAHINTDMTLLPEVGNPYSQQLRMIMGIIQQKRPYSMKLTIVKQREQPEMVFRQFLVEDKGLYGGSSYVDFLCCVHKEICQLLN
UniProt O95487: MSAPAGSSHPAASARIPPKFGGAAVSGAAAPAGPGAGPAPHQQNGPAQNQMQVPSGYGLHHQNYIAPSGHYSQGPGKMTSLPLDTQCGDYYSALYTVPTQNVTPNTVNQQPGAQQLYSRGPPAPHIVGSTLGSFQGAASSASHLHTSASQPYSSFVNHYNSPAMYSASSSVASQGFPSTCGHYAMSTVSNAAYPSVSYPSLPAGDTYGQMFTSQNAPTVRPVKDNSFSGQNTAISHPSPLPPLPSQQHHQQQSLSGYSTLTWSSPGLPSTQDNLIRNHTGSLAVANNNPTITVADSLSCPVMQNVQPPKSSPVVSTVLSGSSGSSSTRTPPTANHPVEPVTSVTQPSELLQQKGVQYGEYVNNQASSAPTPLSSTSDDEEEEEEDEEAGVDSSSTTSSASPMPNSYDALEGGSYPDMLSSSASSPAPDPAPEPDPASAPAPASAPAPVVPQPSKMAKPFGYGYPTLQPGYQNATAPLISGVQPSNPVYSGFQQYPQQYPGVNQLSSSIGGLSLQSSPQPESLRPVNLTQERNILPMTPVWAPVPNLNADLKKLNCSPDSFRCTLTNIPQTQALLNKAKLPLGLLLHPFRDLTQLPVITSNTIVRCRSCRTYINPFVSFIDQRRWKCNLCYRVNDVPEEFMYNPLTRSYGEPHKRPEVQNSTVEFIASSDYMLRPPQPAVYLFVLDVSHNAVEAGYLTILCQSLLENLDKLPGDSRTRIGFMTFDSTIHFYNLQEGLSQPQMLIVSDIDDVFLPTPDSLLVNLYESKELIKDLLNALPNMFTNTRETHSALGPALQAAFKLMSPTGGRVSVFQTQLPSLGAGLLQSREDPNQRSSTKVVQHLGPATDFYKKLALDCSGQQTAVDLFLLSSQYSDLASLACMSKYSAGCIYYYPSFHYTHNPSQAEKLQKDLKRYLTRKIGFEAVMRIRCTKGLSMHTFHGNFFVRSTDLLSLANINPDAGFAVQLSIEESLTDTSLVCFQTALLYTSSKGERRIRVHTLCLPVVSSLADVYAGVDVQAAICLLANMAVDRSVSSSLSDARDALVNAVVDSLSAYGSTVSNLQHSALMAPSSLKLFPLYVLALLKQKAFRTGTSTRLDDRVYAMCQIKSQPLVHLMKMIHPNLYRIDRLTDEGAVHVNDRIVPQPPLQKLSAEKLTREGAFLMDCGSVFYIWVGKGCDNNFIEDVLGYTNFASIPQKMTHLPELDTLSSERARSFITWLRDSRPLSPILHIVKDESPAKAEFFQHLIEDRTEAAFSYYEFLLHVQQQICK
UniProt P61619, whole entry, looked up: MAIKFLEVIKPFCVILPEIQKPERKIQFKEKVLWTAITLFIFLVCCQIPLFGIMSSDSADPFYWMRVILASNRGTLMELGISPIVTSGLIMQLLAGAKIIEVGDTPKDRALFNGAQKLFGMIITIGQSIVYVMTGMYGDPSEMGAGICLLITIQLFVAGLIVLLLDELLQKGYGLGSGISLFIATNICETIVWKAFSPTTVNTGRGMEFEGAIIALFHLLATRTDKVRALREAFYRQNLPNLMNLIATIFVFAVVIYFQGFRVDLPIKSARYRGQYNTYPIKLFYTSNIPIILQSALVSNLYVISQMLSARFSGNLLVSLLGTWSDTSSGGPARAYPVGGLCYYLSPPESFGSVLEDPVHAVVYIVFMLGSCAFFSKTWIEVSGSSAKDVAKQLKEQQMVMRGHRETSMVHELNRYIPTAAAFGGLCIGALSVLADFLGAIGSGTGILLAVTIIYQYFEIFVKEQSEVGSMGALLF
UniProt Q01826: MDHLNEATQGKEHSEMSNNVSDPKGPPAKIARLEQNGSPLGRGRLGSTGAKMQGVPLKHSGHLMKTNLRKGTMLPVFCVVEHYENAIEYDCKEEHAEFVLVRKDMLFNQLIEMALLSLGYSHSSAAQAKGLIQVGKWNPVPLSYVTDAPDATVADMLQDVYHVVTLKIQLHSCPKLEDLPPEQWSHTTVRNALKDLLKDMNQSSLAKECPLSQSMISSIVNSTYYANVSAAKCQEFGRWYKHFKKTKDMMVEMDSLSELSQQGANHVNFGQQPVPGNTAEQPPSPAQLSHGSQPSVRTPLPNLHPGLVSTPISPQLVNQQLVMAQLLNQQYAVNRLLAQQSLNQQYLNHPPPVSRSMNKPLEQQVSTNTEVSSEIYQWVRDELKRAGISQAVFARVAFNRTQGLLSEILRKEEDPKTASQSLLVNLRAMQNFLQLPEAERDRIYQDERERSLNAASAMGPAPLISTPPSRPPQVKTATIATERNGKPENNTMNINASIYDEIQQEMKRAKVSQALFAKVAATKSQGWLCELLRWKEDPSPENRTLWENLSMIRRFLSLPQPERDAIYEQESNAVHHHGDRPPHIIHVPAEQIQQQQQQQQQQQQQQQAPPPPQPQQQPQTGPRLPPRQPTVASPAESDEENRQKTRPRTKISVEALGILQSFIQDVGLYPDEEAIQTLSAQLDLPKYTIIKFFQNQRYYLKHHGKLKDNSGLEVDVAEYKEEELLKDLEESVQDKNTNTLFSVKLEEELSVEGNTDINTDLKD
UniProt P53992: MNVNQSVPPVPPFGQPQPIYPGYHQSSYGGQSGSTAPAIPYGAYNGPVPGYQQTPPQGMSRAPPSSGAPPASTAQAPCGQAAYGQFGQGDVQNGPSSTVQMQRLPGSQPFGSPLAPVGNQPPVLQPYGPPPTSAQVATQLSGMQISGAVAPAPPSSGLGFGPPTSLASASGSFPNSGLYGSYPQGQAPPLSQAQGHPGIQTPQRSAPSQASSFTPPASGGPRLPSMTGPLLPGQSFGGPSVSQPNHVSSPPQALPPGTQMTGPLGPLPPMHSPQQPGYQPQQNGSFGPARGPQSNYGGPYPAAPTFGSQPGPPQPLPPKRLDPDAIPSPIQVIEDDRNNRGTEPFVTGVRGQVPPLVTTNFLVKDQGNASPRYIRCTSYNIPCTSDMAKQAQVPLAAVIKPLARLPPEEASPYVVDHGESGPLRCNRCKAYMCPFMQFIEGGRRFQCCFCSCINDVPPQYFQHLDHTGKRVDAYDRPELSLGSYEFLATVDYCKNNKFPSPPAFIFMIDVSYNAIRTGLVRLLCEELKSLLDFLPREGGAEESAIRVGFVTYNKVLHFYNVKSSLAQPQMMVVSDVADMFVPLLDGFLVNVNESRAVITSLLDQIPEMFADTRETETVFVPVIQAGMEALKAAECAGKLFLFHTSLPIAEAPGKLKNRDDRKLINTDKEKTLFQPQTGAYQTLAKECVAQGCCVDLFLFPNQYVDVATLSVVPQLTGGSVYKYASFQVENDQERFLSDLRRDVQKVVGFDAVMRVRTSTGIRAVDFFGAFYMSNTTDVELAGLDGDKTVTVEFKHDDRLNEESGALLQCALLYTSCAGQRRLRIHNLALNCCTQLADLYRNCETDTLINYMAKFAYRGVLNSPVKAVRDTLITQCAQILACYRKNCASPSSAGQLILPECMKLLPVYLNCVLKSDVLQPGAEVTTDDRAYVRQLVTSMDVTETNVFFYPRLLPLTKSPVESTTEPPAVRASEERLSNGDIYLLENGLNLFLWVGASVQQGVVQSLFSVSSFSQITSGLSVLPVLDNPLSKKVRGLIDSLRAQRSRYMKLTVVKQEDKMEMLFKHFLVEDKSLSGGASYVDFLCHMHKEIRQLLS
UniProt Q9BVL4, whole entry: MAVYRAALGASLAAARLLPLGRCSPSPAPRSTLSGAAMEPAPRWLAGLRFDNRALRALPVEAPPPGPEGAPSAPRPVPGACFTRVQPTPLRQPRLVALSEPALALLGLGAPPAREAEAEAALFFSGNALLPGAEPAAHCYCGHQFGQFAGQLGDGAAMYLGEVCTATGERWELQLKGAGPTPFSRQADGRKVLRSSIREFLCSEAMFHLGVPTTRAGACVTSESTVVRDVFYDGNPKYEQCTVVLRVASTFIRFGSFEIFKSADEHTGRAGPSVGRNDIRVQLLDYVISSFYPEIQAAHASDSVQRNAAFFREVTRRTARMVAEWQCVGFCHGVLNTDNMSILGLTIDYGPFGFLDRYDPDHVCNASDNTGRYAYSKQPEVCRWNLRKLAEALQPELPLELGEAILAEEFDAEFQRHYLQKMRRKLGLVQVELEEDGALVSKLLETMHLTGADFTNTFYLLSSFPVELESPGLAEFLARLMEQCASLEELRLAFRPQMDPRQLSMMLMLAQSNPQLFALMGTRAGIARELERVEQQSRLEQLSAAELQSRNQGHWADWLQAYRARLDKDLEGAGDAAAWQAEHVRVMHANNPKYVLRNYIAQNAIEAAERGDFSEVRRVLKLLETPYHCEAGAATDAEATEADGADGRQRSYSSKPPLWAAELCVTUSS

Compound: Cc1cc(ccc1-c1ccccc1)C(=O)N1CCCN(CC1)C(=O)CCl [compound 10]
Experiment: probe-labelled cysteine peptide fold change vs DMSO (competition) (log2 fold change); higher = less target engagement (more negative = stronger competition)
Conditions: 10 µM; THP-1; incubation time: 4 h
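Further: competitive profiling in live THP-1 cells: cysteine peptides tagged with an iodoacetamide desthiobiotin (IA-DTB) probe, intensity after compound treatment relative to DMSO-treated cells.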

Target | probe-labelled cysteine peptide fold change
SART3_Q15020_114_LEEQLSINVYDYNCHVDLIR (UniProt Q15020) | 0.195
SEC24D_O94855_1021_GLYGGSSYVDFLCCVHK (UniProt O94855) | -0.0787
SCRIB_Q14160_334_LTNLNVDRNHLEALPPEIGGCVALSVLSLR (UniProt Q14160) | -0.0166
SCAF11_Q99590_553_TDVCTVHLPNDFPTCLTSESK (UniProt Q99590) | -0.12
SEC24B_O95487_1103_VYAMCQIK (UniProt O95487) | -0.0244
SEC61A1_P61619_13_FLEVIKPFCVILPEIQKPER (UniProt P61619) | 0.0694
SATB1_Q01826_78_KGTMLPVFCVVEHYENAIEYDCK (UniProt Q01826) | 0.178
SEC24C_P53992_816_HDDRLNEESGALLQCALLYTSCAGQR (UniProt P53992) | 0.148
SEL1L_Q9UBV2_127_KPALTAIEGTAHGEPCHFPFLFLDK (UniProt Q9UBV2) | -0.085
SDHA_P31040_443_HVNGQDQIVPGLYACGEAACASVHGANR (UniProt P31040) | 0.059
SATB1_Q01826_209_ECPLSQSMISSIVNSTYYANVSAAK (UniProt Q01826) | 0.225
SEC24D_O94855_853_NCVLLSRPEISTDER (UniProt O94855) | 0.103
SART3_Q15020_821_EELEEICK (UniProt Q15020) | 0.175
SELENOO_Q9BVL4_629_LLETPYHCEAGAATDAEATEADGADGR (UniProt Q9BVL4) | -0.157
SCRIB_Q14160_334_NHLEALPPEIGGCVALSVLSLR (UniProt Q14160) | 0.399
